Publication PMC4751435
No constants are given. Whether binding was seen depends on the method and setting. Binding seen in cells or lysates may run through a third protein. Some binding calls cover weakened binding; strength is not graded here. Tags and fused reporters may be left off the sequences shown.

By UniProt entry, the sequences of proteins in these tests, tags left out. Residues count along the entry.
UniProt O75925: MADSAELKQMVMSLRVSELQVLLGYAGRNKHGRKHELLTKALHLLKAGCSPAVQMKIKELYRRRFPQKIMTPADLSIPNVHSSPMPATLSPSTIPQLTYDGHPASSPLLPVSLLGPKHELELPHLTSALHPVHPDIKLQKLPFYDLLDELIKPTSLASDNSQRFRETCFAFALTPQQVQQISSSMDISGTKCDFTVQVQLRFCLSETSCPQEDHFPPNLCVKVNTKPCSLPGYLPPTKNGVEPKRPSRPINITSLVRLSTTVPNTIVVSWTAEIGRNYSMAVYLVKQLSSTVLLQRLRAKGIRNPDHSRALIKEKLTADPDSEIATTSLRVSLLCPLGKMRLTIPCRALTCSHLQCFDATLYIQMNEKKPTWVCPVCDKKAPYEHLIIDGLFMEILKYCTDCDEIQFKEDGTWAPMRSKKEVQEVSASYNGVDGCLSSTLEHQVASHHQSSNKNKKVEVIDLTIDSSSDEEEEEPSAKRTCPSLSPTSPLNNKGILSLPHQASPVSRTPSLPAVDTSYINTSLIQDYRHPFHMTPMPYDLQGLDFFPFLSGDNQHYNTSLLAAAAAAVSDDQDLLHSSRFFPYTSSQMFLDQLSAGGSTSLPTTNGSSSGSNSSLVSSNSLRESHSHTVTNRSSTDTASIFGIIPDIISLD
UniProt O75928: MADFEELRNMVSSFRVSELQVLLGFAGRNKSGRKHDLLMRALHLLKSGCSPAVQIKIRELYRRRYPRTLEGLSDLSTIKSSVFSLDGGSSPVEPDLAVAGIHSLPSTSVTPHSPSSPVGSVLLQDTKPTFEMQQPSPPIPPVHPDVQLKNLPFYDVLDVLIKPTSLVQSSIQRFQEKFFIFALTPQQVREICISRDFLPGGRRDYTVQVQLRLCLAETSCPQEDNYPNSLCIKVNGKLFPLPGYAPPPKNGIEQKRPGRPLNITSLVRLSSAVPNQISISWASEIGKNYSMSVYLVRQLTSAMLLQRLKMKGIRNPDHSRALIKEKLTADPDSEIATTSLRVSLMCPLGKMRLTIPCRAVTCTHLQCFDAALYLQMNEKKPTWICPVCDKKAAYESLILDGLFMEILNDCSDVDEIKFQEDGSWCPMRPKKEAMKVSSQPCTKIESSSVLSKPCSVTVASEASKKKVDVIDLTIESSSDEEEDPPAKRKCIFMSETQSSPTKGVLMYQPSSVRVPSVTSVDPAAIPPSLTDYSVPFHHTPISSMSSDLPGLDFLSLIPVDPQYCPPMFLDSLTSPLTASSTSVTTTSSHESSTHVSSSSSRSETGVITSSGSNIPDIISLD
UniProt P63165, residues 1-97: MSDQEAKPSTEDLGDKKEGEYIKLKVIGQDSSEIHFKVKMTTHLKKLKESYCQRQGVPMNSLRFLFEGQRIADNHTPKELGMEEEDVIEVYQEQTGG
UniProt P61956: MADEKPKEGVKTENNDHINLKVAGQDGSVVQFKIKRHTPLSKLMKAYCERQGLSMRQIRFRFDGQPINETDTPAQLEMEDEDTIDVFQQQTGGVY

What was measured:
Assay in all cases: FRET or BRET; BRET in live HEK293 cells transfected with a Renilla luciferase fusion (donor) and a YFP fusion (acceptor); control donor a nuclear-targeted luciferase; mean corrected BRET ratios, n = 3
[1] = molecular target: YFP-PIAS1 (wild-type) (human) (UniProt O75925)
YFP-PIAS2 (human) = YFP-PIAS2 (human) (UniProt O75928)
YFP-PIAS4 (human) = molecular target: T1, YFP-PIAS4 (human) (UniProt Q8N2W9)
T1 sequence: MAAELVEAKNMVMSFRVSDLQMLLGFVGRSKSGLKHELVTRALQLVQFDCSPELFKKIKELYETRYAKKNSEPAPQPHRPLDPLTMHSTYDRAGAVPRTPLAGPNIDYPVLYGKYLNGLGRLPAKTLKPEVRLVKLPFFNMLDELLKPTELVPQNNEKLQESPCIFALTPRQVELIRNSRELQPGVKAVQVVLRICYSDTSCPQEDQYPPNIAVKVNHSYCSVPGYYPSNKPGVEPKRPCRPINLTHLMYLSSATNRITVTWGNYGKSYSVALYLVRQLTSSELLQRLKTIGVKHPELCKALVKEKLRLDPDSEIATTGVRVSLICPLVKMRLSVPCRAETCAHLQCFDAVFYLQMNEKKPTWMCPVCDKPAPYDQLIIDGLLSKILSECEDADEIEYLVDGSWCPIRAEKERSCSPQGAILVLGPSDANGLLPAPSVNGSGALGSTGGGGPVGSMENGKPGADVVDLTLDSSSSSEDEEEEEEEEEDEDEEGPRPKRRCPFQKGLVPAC

[2] = molecular target: YFP-SUMO1 (wild-type, GG) (human) (UniProt P63165)
[3] = molecular target: YFP-SUMO2 (wild-type, GG) (human) (UniProt P61956)

binding [1]: binds
binding (YFP-PIAS2 (human)): binds
binding (YFP-PIAS4 (human)): binds
binding [2]: binds
binding [3]: binds
B1: luciferase-FOXP1 (protein, UniProt Q9H334 1-677)
chain: MMQESGTETKSNGSAIQNGSGGSNHLLECGGLREGRSNGETPAVDIGAADLAHAQQQQQQALQVARQLLLQQQQQQQVSGLKSPKRNDKQPALQVPVSVAMMTPQVITPQQMQQILQQQVLSPQQLQVLLQQQQALMLQQQQLQEFYKKQQEQLQLQLLQQQHAGKQPKEQQQVATQQLAFQQQLLQMQQLQQQHLLSLQRQGLLTIQPGQPALPLQPLAQGMIPTELQQLWKEVTSAHTAEETTGNNHSSLDLTTTCVSSSAPSKTSLIMNPHASTNGQLSVHTPKRESLSHEEHPHSHPLYGHGVCKWPGCEAVCEDFQSFLKHLNSEHALDDRSTAQCRVQMQVVQQLELQLAKDKERLQAMMTHLHVKSTEPKAAPQPLNLVSSVTLSKSASEASPQSLPHTPTTPTAPLTPVTQGPSVITTTSMHTVGPIRRRYSDKYNVPISSADIAQNQEFYKNAEVRPPFTYASLIRQAILESPEKQLTLNEIYNWFTRMFAYFRRNAATWKNAVRHNLSLHKCFVRVENVKGAVWTVDEVEFQKRRPQKISGNPSLIKNMQSSHAYCTPLNAALQASMAENSIPLYTTASMGNPTLGNLASAIREELNGAMEHTNSNESDSSPGRSPMQAVHPVHVKEEPLDPEEAEGPLSLVTTANHSPDFDHDRDYEDEPVNEDME
